These are yes or no findings as the source states them, for the method shown. In cells and extracts the contact can be indirect. Some binding calls cover weakened binding; strength is not graded here.

Chains of the proteins cited; added tags and fusions are not shown. Lines headed by an entry give the natural chain unless they say otherwise; changes in a name come on top.
UniProt O08816: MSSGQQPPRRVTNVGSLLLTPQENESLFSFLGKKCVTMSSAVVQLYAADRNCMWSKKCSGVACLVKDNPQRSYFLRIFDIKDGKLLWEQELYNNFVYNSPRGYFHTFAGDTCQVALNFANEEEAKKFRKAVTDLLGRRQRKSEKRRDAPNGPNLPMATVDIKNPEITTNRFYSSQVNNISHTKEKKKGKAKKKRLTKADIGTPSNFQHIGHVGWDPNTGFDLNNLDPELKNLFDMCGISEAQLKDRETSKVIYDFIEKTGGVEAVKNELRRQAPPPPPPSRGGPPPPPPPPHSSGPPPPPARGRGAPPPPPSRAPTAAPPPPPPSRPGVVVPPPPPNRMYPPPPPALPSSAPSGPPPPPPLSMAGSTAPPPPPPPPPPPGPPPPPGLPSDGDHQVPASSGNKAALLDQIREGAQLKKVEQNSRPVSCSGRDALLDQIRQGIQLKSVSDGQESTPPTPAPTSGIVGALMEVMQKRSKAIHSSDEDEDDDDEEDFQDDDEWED
UniProt P60953: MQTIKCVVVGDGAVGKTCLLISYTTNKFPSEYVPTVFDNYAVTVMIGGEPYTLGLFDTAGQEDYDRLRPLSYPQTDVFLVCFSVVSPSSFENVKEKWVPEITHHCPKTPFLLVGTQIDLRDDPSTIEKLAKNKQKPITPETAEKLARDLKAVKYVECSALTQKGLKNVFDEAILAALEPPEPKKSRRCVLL

Results on one substance are retold here after publication PMC2921345.

Assay [1] deals with mRFP-N-WASP (wild type) (UniProt O08816). As to the kind of experiment: FRET or BRET; AP-FRET in cells with low level GFP-Cdc42G12V plus mRFP-Toca-1/HA-N-WASP or mRFP-N-WASP/myc-Toca-1, 36 hours; ROI on membrane vesicles.
Assay [2] has the same target. The experiment in a line: FRET or BRET; AP-FRET in cells with low level GFP-Cdc42G12V plus mRFP-Toca-1/HA-N-WASP or mRFP-N-WASP/myc-Toca-1, 36 hours; ROI on tubules. (In BRET a luciferase serves as donor, and the signal depends on an acceptor being close.)

Consider “GFP-Cdc42G12V (dominant active Cdc42) (from UniProt P60953 1-191)”, for which the binding entry with mRFP-N-WASP (wild type) [1] and in the assay with mRFP-N-WASP (wild type) [2] was “binds” each time.
